# From PubChem BioAssay AID493014 (National Center for Advancing Translational Sciences (NCATS), 2011)
# The other results are listed elsewhere or left out. Shown are side measurements of this screen, not its main read-out; they come without a call. The list favours compounds with an active or inconclusive main result. Potencies come from curve fits of mixed quality, noted in brackets.
# Experiment: qHTS Assay to Find Inhibitors of Chronic Active B-Cell Receptor Signaling
# Conditions: ABC-DLBCL IkBa-CBG/CBR reporter, luminescence ratio (green luciferase fused to IkBa over red control in TMD8 lymphoma cells), 4 h; measured here: CBR red luminescence, cell number
# Excerpt: NIH Molecular Libraries Probe Production Network [MLPCN] NIH Chemical Genomics Center [NCGC] MLPCN Grant: 1 R03 DA031086-01A1 PI Name: Dr. R. Eric Davis NCGC Assay Overview: Diffuse large B-cell lymphoma (DLBCL) is the most common category of non-Hodgkin lymphoma, with ~20,000 new cases per year in the United States. DLBCL should be regarded as a collection of different neoplasms. Microarray gene expression analysis has defined two principal types of DLBCL, named for their similarity to normal B cell stages or activation states: a germinal center B-cell (GCB) type, and an activated B-cell (ABC) type. […] Following the addition of doxycycline to induce expression of the luciferases, the green luminescence in control cultures rises only slowly because the CBG fusion partner IkappaBalpha is targeted by IKK activity for rapid degradation. In contrast, green luminescence rises rapidly in the presence of proteasome inhibitors or IKK inhibitors. The rise in red luminescence of CBR is not affected by proteasome or IKK inhibitors, and serves as normalization for cell number and nonspecific effects. […]
# NCGC Assay Protocol Summary: Cells were seeded in 1536-well plates at 5000 cells/4uL in IMDM medium containing 0.5% FBS, w/o phenol red, 1% penicillin/streptomycin. […] The plates were measured on a ViewLux plate reader for green luminescence (540/20 nm filter) and red luminescence (618/8 nm filter). […]
row,SMILES,AC50
1,COc1cc(/C=N/Nc2ccc(Cl)c(C(=O)O)c2)ccc1OC(=O)c1ccc(F)cc1,"3.98 µM [falling, full curve, poor fit]"
2,Cc1ccccc1N/N=C/c1sc(=O)n(Cc2cccc(C(=O)O)c2)c1Cl,"20 µM [falling, partial curve, poor fit]"
